Experiment: general procedure: Boc solid-phase peptide synthesis; chloromethylated resin (Merrifield resin); Boc-L-Pro-O-(PAM)-resin; BOP reagent/DIEA for some couplings; acid chloride coupling
Details: for isolated mass: scale 1 mmole
[1] = whole synthesis, HPLC (Method G), scale of the general procedure 1 mmole, head-to-tail ring
[2] = late stage modification step, HPLC (Method G), head-to-tail ring
[3] = whole synthesis, 214 nM, head-to-tail ring
[4] = late stage modification step, 210 nM, head-to-tail ring
[5] = whole synthesis, 210 nM, scale of the general procedure 1 mmole
[6] = late stage modification step, HPLC (Method G)
[7] = whole synthesis, HPLC (Method G), scale of the general procedure 1 mmole
[8] = whole synthesis, scale of the general procedure 1 mmole
[9] = whole synthesis, 210 nM, scale of the general procedure 1 mmole, head-to-tail ring
[10] = whole synthesis, 214 nM, scale of the general procedure 1 mmole, head-to-tail ring

Substance: c-[(O-Ethyl)-D-tyrosyl-L-isoleucyl-D-pipecolyl-L-pipecolyl-N-methyl-D-phenylalanyl-L-prolyl]
- final HPLC purity [1]: 93.8% pure

Substance: o-[D-Phenylalanyl-L-isoleucyl-D-pipecolyl-Nβ-(amino-ethyl)-L-asparagyl-N-methyl-D-phenylalanyl-L-prolyl]
- final HPLC purity [2]: (99%)

Substance: c-[D-Phenylalanyl-L-isoleucinyl-D-pipecolyl-L-piperazin-2-yl(4Cbz)-D-histidinyl-L-prolyl]
- final HPLC purity [3]: >99%

Substance: c-[D-Trytophanyl-L-isoleucinyl-D-pipecolyl-L-piperazin-2-yl-D-tryptophanyl-L-prolyl]
- final HPLC purity [4]: >97.7%

Substance: c-[D-Phenylalanyl-L-isoleucyl-D-pipecolyl(O-tert-bytyl)-L-aspartyl-N-methyl-D-phenylalanyl-L-prolyl]
- final HPLC purity [1]: 94.7% pure

Substance: c-[D-Tryptophanyl-L-isoleucinyl-D-pipecolyl-L-piperazin-2-yl(4-dibenzylphosphoramidyl)-D-(N^α-Me)phenylal anyl-L-prolyl]
- final HPLC purity (late stage modification step, 210 nM): >96%

Substance: C[D-Phenylalanyl-L-isoleucyl-D-prolyl-L-prolyl-D-phenylalanyl-L-prolyl]
- final HPLC purity [5]: 99%

Substance: c-[D-Phenylalanyl-L-(O-tert-butyl)-threonyl-D-pipecolyl-L-pipecolyl-D-N-methy!-phenylalany!-L-prolyl]
- final HPLC purity [1]: 98.5% pure

Substance: C-[D,L-meta-Tyrosyl-L-isoleucyl-D-pipecolyl-L-lysyl-D-(N-methyl)phenylalanyl-L-prolyl]
- step yield (late stage modification step): 49%
- final HPLC purity [6]: 99%

Substance: cyclo[D-Phe-L-Ile-D-Pip-L-Pip-D-His-L-Pro]
- final HPLC purity [7]: purity 99%
- isolated mass (whole synthesis): 248 mg
- isolated yield [8]: 28%

Substance: c-[L-Phenylalanyl-D-isoleucyl-L-prolyl-D-prolyl-L-phenylalanyl-D-prolyl]
- final HPLC purity [9]: 100%

Substance: c-[D-Cyclohexylalanyl-L-isoleucyl-D-prolyl-D-phenylalanyl-L-prolyl]
- final HPLC purity [5]: 99%

Substance: c-[D-Phenylalanyl-L-isoleucinyl-D-pipecolyl-D-piperazin-2-yl(4-Cbz)-D-histidinyl-L-prolyl]
- final HPLC purity [3]: >95%

Substance: c-[L-prolyl-D-phenylalanyl-L-isoleucyl-D-piperazyl L-piperazyl-D-phenylalanyl]
- final HPLC purity [2]: 96% pure

Substance: Cyclo[D-Phe-L-lie-D-Pip-L-Lys-D-His-L-Pro]
- step yield (late stage modification step): 50%
- final HPLC purity [6]: 97.5%

Substance: Cyclo[D-phenylalanyl-L-isoleucyl-D-pipecolyl-L-pipecolyl-D-ornithyl-L-prolyl]
- step yield (late stage modification step): 38%
- purity (crude or final not stated) [6]: 99%

Substance: Cyclo[D-tryptophanyl-L-isoleucyl-D-pipecolyl-L-pipecolyl-D-[im-(CH3)2]^+histidyl-L-prolyl] trifluoro-acetate
- step yield (late stage modification step): 42%
- final HPLC purity [6]: purity 99%

Substance: cyclo[D-Phe-L-Ile-D-Pip-L-(NαMe)Ala-D-(NαMe)Phe-L-Pro]
- final HPLC purity [7]: purity 99%
- isolated mass (whole synthesis): 470 mg
- isolated yield [8]: 64%

Substance: cyclo[D-Trp-L-Leu-D-Pip-L-Pip-D-His-L-Pro]
- final HPLC purity [7]: purity 99%
- isolated mass (whole synthesis): 150 mg
- isolated yield [8]: 16%

Substance: cyclo[D-Phe-L-Ile-D-Pip-D-(3,4-dehydro)-Pip-D-(NαMe)Phe-L-Pro]
- final HPLC purity [7]: purity 99%
- isolated mass (whole synthesis): 150 mg
- isolated yield [8]: 20%

Substance: cyclo[D-MePhe-L-MeIle-D-Pip-L-Pip-D-MePhe-L-Pro]
- step yield (late stage modification step): 40%
- final HPLC purity [6]: purity 98%

Substance: Cydo[D-Trp-L-Ile-D-Pip-L-Orn-D-(N^αMe)Phe-L-Pro]
- step yield (late stage modification step): 41%
- final HPLC purity [6]: 99%

Substance: c-[D-Phenylalanyl-L-isoleucyl-D-prolyl-L-seryl-N-methyl-D-phenylalanyl-L-prolyl]
- final HPLC purity [1]: 97.8% pure

Substance: Cyclo[D-Trp-L-Ile-D-Pip-L-Lys-D-Trp-L-Pro]
- step yield (late stage modification step): 33%
- final HPLC purity [6]: 99%

Substance: cyclo[D-Phe-L-Ile-D-Pip-L-(3,4-dehydro)-Pip-D-(NαMe)Phe-L-Pro]
- final HPLC purity [7]: purity 99%
- isolated mass (whole synthesis): 520 mg
- isolated yield [8]: 70%

Substance: cyclo[D-Trp-L-Ile-D-Pip-L-(Cbz)Lys-D-Trp-L-Pro]
- final HPLC purity [7]: purity 99%
- isolated mass (whole synthesis): 650 mg
- isolated yield [8]: 67%

Substance: Cyclo[D-Phe-L-lie-D-Pip-L-Pip-D-(N^αMe)Tyr-L-Pro]
- final HPLC purity [6]: 97.5%

Substance: c-[D-Phenylatanyl-L-isoleucyl-D-prolyl-L-prolyl-D-cysteinyl(Bzl)-L-prolyl]
- final HPLC purity [5]: 97.5%

Substance: c-[D-Tyr-L-Ile-D-Pip-L-(Boc)Lys-D-(N-Me )-Phe-L-Pro]
- step yield (late stage modification step): 71%
- crude HPLC purity [6]: 99%

Substance: cyclo[D-Phe-L-Ile-D-Pip-L-Pip-D-(NαMe)Phe-L-Pro]
- final HPLC purity [7]: purity 99%

Substance: c-[D-Phenylalanyl-L-isoleucyl-D-prolyl-L-prolyl-D-cysteinyl(Acm)-L-prolyl]
- final HPLC purity [5]: 99%

Substance: c-[D-Phenylalanyl-L-isoleucinyl-D-piperazin-2-yl-(4-Cbz)-L-pipecolyl-D-phenylalanyl-L-prolyl]
- final HPLC purity [3]: >95%

Substance: c-[D,L-(5-Me)Trp-L-Ile-D-Pip-L-Pip-D-His-L-Pro] higher Rf isomer
- final HPLC purity [7]: 98%

Substance: c-[D-Homophenylalanyl-L-isoleucyl-D-pipecolyl-L-pipecolyl-N-Me-D-phenylalanyl-L-prolyl]
- final HPLC purity [9]: >95.5%

Substance: c-[D-Phenylalanyl-L-isoleucyl-D-prolyl-L-prolyl-N-methyl-D-phenylalanyl-L-prolyl]
- final HPLC purity [9]: >99%

Substance: Cyclo[D-Phe-L-Ile-D-Pip-L-Pip-(p-nitro)-Phe-L-Pro]
- final HPLC purity [7]: 98%
- isolated mass (whole synthesis): 800 mg
- isolated yield [8]: 70%

Substance: c-[D-Phenylalanyl-L-isoleucyl-D-glutamyl-L-asparagyl-D-phenylalanyl-L-prolyl]
- final HPLC purity [1]: 90.0% pure

Substance: Cyclo[D-Trp-L-Ile-D-Pip-L-(Cbz)Lys-D-(N^αMe)Phe-L-Pro]
- final HPLC purity [7]: 99%
- isolated mass (whole synthesis): 480 mg
- isolated yield [8]: 49%

Substance: cyclo[D-Phe-L-Ala-D-Pip-L-Pip-D-(NαMe)Phe-L-Pro]
- final HPLC purity [7]: purity 98.5%
- isolated mass (whole synthesis): 202 mg
- isolated yield [8]: 28%

Substance: Cyclo[D-Trp-L-lie-D-Pip-L-Lys-D-His-L-Pro]
- step yield (late stage modification step): 32%
- final HPLC purity [6]: 99%

Substance: c-[D-2-Naphthylalanyl-L-isoleucyl-D-pipecolyl-L-piperazin-2-yl-D-histidyl-L-prolyl]
- step yield (late stage modification step): 38%
- final HPLC purity [6]: 99%

Substance: c-[D-Phenylalanyl-L-(O-benzyl)-threoninyl-D-prolyl-L-prolyl-D-phenylalanyl-L-prolyl]
- final HPLC purity [10]: 99%

Substance: c-[D-Phenylalanyl-L-prolyl-D-prolyl-L-prolyl-D-phenylalanyl-L-prolyl]
- final HPLC purity [10]: 97%

Substance: c-[D-Tryptophanyl-L-isoleucinyl-D-pipecolyl-L-piperazin-2-yl-D-phenylalanyl-L-prolyl]
- final HPLC purity [4]: >98.5%

Substance: c-[D-Phenylalanyl-L-isoleucyl-D-pipecolyl-L-pipecolyl-N-allyl-D-phenylalanyl-L-prolyl]
- final HPLC purity [1]: 96.0% pure
